PubChem BioAssay AID504791 – Drosophila RNAi Screening Center – 2011
The deposit covers about 23,000 reagents; below is an unselected part of those that have a named target and a result. Of all reagents, 199 (0.86%) are marked active. 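Plate-scaled ratios behind the calls are not deposited; printed light signals are raw; many rows marked increased or decreased are still called inactive.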 A number with no mark means an inactive call. The numbers tell different reagents against one gene apart. A plus sign joins genes that one reagent is predicted to hit.

Screen: 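Factors in Argonaute-based small RNA production and activity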 (primary screen)
System: Drosophila S2-derived reporter cells
Reagent: long dsRNA against Drosophila genes, about 150-250 ng dsRNA per well (siRNA assay); about 80-120 ng (miRNA assay)
Timing: about 5 days (siRNA assay); about 4 days (miRNA assay)
Conditions: copper sulfate induction of reporters: 25 µM (siRNA assay); 200 mM stated (miRNA assay), 1-2 days before reading
Read-out: 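Dual luciferase assay: Renilla to firefly signal ratio in each well, scaled to the mean ratio of its plate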
Reading the numbers: siRNA reporter hit score: higher = 3 marks a strong hit with raised ratio; -3 a strong hit with lowered ratio
Units: stable assay Renilla, run 1 in luminescence; stable assay firefly, run 1 in luminescence
Hit rule: 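a well was a first-pass pick when its plate-scaled ratio rose above 1.5 (siRNA assay) or 1.6 (miRNA assay), or dropped below 0.6; a gene counted only if two separate dsRNAs agreed on retest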

Depletion of CG13795 gave: stable assay Renilla, run 1 = 7519; stable assay firefly, run 1 = 5.59e5. St3 (Sulfotransferase 3) scored stable assay Renilla, run 1 = 9012; stable assay firefly, run 1 = 4.08e5. With knock-down of Rab26 #1, the record shows stable assay Renilla, run 1 = 8773; stable assay firefly, run 1 = 3.67e5. Rab26 #2 scored stable assay Renilla, run 1 = 7587; stable assay firefly, run 1 = 4.19e5. Rab26 #3 scored stable assay Renilla, run 1 = 6382; stable assay firefly, run 1 = 4.83e5. AstC (Allatostatin C) scored stable assay Renilla, run 1 = 6942; stable assay firefly, run 1 = 2.71e5.

Against CG9447 the deposit lists stable assay Renilla, run 1 = 7402; stable assay firefly, run 1 = 4.69e5. Rcd2 (Reduction in Cnn dots 2) showed stable assay Renilla, run 1 = 7670; stable assay firefly, run 1 = 3.45e5. After knock-down of Nedd4 #1 the results were stable assay Renilla, run 1 = 7590; stable assay firefly, run 1 = 4.55e5. Nedd4 #2 gave stable assay Renilla, run 1 = 9426; stable assay firefly, run 1 = 4.20e5. stj (straightjacket) showed stable assay Renilla, run 1 = 9934; stable assay firefly, run 1 = 4.21e5. With knock-down of Spn42Dc (Serpin 42Dc), the record shows stable assay Renilla, run 1 = 6970; stable assay firefly, run 1 = 4.55e5.

After knock-down of mRpL13 (mitochondrial ribosomal protein L13), the screen gave stable assay Renilla, run 1 = 6976; stable assay firefly, run 1 = 4.76e5. After knock-down of CG33278, the record shows stable assay Renilla, run 1 = 5766; stable assay firefly, run 1 = 4.45e5. Silencing of CG42374 + Mettl5 resulted in: stable assay Renilla, run 1 = 9719; stable assay firefly, run 1 = 3.28e5. Silencing of CG10700 came out at: stable assay Renilla, run 1 = 8480; stable assay firefly, run 1 = 5.15e5.

Looked up above:
Under “stable assay Renilla, run 1”, CG13795 reads 7519
For “stable assay Renilla, run 1”, CG42374 + Mettl5 shows 9719

The listing continues:
With knock-down of Ncoa6 (Nuclear receptor coactivator 6) #1, the record shows siRNA reporter hit score 3; stable assay Renilla, run 1 = 58625; stable assay firefly, run 1 = 1.32e5. Ncoa6 (Nuclear receptor coactivator 6) #2 scored stable assay Renilla, run 1 = 3715; stable assay firefly, run 1 = 2.61e5. Depletion of CG3808 came out at: stable assay Renilla, run 1 = 7441; stable assay firefly, run 1 = 4.66e5. After knock-down of idc (identity crisis), the screen gave stable assay Renilla, run 1 = 8240; stable assay firefly, run 1 = 2.83e5. Against CG34433, the entry reads stable assay Renilla, run 1 = 7199; stable assay firefly, run 1 = 4.34e5. CG18507 #1 scored stable assay Renilla, run 1 = 4451; stable assay firefly, run 1 = 3.02e5.

CG18507 #2 scored stable assay Renilla, run 1 = 8035; stable assay firefly, run 1 = 4.99e5. BHD (Birt-Hogg-Dube) #1 gave stable assay Renilla, run 1 = 8170; stable assay firefly, run 1 = 4.73e5. Against BHD (Birt-Hogg-Dube) #2, the entry reads stable assay Renilla, run 1 = 3083; stable assay firefly, run 1 = 3.77e5. Nup75 (Nucleoporin 75kD) scored stable siRNA reporter change reporter ratio raised past the hit cutoff; stable assay Renilla, run 1 = 17931; stable assay firefly, run 1 = 3.77e5. Against CG31233 the deposit lists stable assay Renilla, run 1 = 6368; stable assay firefly, run 1 = 3.37e5. Against CG31041, the entry reads stable assay Renilla, run 1 = 5495; stable assay firefly, run 1 = 3.51e5.
